According to paper PMC12034783:
Results are given in words; binding and its absence hold for the method and conditions named. In cells and extracts the contact can be indirect. Some results given as binding are weak or reduced against the parent protein; the word gives no strength.

Amino acid sequences for entries named in this document (tags omitted).
UniProt Q15910: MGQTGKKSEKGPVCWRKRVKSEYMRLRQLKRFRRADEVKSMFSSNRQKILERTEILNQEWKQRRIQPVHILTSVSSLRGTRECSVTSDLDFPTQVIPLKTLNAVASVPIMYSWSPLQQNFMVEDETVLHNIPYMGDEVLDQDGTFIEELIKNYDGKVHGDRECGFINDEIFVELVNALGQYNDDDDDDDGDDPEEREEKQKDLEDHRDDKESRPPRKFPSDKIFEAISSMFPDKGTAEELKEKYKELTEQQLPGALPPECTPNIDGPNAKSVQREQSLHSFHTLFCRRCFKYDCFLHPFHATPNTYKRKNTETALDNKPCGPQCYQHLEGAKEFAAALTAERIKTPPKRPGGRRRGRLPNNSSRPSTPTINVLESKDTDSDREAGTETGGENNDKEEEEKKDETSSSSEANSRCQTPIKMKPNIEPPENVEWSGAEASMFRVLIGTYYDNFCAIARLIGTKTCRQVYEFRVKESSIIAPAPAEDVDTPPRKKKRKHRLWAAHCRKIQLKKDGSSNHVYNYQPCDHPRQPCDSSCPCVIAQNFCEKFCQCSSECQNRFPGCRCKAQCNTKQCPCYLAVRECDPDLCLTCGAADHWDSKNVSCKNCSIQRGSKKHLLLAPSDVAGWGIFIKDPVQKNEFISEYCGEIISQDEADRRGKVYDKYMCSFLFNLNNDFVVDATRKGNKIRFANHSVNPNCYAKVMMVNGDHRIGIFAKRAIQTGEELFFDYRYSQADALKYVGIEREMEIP
UniProt P62258: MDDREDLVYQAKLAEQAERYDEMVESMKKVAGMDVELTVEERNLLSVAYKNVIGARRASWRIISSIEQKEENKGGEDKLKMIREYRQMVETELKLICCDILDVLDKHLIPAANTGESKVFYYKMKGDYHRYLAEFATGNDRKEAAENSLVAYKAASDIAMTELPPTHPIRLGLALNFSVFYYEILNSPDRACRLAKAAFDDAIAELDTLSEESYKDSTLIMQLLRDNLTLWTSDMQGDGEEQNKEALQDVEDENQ

Target: Enhancer of Zeste Homolog-2 (EZH2) (human (endogenous in EA.hy926 and HUVEC)) (UniProt Q15910)
Experiment: co-IP; co-immunoprecipitation using EZH2, blot for 14-3-3 epsilon; EC, untreated control (Supplementary Fig. 7B)

- binding: binds
Substance: 14-3-3 epsilon (from UniProt P62258 1-255)
